# Source: PubChem BioAssay AID540256 (National Center for Advancing Translational Sciences (NCATS), 2011)
# Among all 300,000 compounds or so, about 3,700 (1.2%) were called active. The inconclusive results got no clear call from the source; some entries with a clear call stand among them for comparison. Calls come from the whole dose curve; tested in HEK293 cells. Where the call is inconclusive, the potency comes from a doubtful curve fit.
# Assay: qHTS for Inhibitors of binding or entry into cells for Lassa Virus; note: nearly all actives have a fitted effect of over 50% in size
# Details: Lassa virus pseudotype entry inhibition, cell reporter; series mostly up to 37.9 µM
# Potency is the fitted concentration of half-maximal effect.
row,SMILES,Potency
1,COc1ccccc1C1CCCN1Cc1nc(-c2cc3c(cc2Cl)OCO3)oc1C (configuration not stated),"inconclusive: 35.5 µM [inhibitor, single point]"
2,Cc1ccc(C(=O)NC(C#N)=C(Cl)Cl)cc1,"inconclusive: 10 µM [inhibitor, partial curve, poor fit]"
3,CCCCCN1C(C(=O)c2ccccc2)=C(NC(=O)c2ccc(OC)cc2)c2ccccc2S1(=O)=O,"inconclusive: 5.62 µM [inhibitor, single point]"
4,COc1ccc(CN(C(=O)c2snc(C(N)=O)c2N)C(C(=O)NC2CCCC2)c2cc(OC)ccc2OC)cc1 (configuration not stated),"inconclusive: 0.398 µM [inhibitor, single point]"
5,O=C(Nc1ccc(C(=O)N2CCN(c3cccc(Cl)c3)CC2)cc1)c1nsc2ccccc12,"inconclusive: 1 µM [activator, full curve, poor fit]"
6,Nc1nonc1-c1noc(-c2ccccc2Br)n1,"inconclusive: 29.1 µM [activator, single point]"
7,c1ccc(-c2ccc(-c3nc(-c4ccncc4)no3)cc2)cc1,"inconclusive: 14.6 µM [inhibitor, single point]"
8,O=C(N/N=C/c1ccco1)c1cc(C2CC2)nc2ccccc12,"inconclusive: 29.1 µM [inhibitor, single point]"
9,Cc1ccc2[nH]c3c(=O)n(N)c(C)nc3c2c1,inactive
10,O=C(c1cc2c(ccc3ccccc32)o1)N1CCCCC1,"inconclusive: 14.1 µM [inhibitor, single point]"
11,COc1cc(NS(=O)(=O)c2ccc(NC(=S)NC(=O)/C=C/c3ccco3)cc2)ncn1,inactive
12,O=C(/C=C/c1ccccc1)N1CCC(c2ccccc2)C1 (configuration not stated),"inconclusive: 1.58 µM [inhibitor, full curve, poor fit]"
13,O=C(Nc1ccccc1)O/N=C/c1ccncc1,"inconclusive: 35.5 µM [activator, single point]"
14,Cc1cccc(C)c1NC(=O)CC(NCc1ccco1)C(=O)O (configuration not stated),"inconclusive: 7.08 µM [activator, full curve, poor fit]"
15,COc1ccc(-c2[nH]c(-c3cccc(OC)c3)nc2SCC(=O)Nc2ccc3c(c2)OCO3)cc1,active: 7.94 µM
16,O=C(C=Cc1ccc(Cl)s1)c1ccc(Cl)s1,inactive
17,CCOC(=O)Cc1csc(NC(=O)c2cccc(OC)c2)n1,inactive
18,COc1cc(SC)ccc1C(=O)NC1CCCCC1,inactive
19,COc1cccc(CNC(=O)Cn2c(=O)ccc3cc(S(=O)(=O)N4CCC(C)CC4)ccc32)c1,inactive
20,Cc1ccc(NC(=O)CSc2nnnn2-c2ccc3c(c2)OCO3)cc1C,"inconclusive: 35.5 µM [inhibitor, single point]"
21,COc1ccc(/C=C2\Sc3ccc(C(=O)NCc4cccnc4)cc3N(C)C2=O)cc1OC,"inconclusive: 18.3 µM [inhibitor, partial curve, poor fit]"

# Pulled one by one from the entries so far, 2 records:
row,SMILES,Potency
9,Cc1ccc2[nH]c3c(=O)n(N)c(C)nc3c2c1,inactive
17,CCOC(=O)Cc1csc(NC(=O)c2cccc(OC)c2)n1,inactive

# Next part

row,SMILES,Potency
1,COc1cccc(C(=O)NCc2ccc3c(c2)CCN3C(=O)c2ccncc2)c1,"inconclusive: 12.6 µM [inhibitor, single point]"
2,CCOC(=O)C1=NN(c2ccccc2C)C2=NC(C)=C(C(=O)OC)C(c3cccc(OC)c3)N12 (configuration not stated),"inconclusive: 9.2 µM [inhibitor, partial curve, poor fit]"
3,CCc1noc(C)c1C(=O)Nc1nc(-c2cc(OC)ccc2OC)cs1,"inconclusive: 11.2 µM [inhibitor, single point]"
4,Cc1nn(-c2ccccc2)c(C)c1/C=N\N1CCN(c2ccc(Cl)cc2)CC1,inactive
5,Cc1cccc(-n2ncc(C(=O)N3CCN(C4CCCCC4)CC3)c2C2CCN(C(=O)OC(C)(C)C)CC2)c1,"inconclusive: 2 µM [inhibitor, full curve, poor fit]"
6,Cc1ccc(C)c(NC(=S)c2nc3ccccc3s2)c1,inactive
7,COc1cc(S(=O)(=O)NCCOC23CC4CC(CC(C4)C2)C3)c(OC)cc1Cl,"inconclusive: 1.26 µM [activator, single point]"
8,Cc1cc(C)cc(OCC(=O)Nc2nc3c(s2)CC(C(C)(C)C)CC3)c1 (configuration not stated),"inconclusive: 6.31 µM [activator, single point]"
9,COc1ccccc1C/C(N)=N/OC(=O)c1cccc([N+](=O)[O-])c1,inactive
10,CCOc1nc(Nc2cc(Cl)ccc2OC)nc(OCC)n1,inactive
11,Cc1c(CN2CCc3c([nH]c4ccccc34)C2C2CCCCC2)cnn1C (configuration not stated),"inconclusive: 5.62 µM [activator, single point]"
12,CCOC(=O)C1CCCN(C(=O)c2cc3nc(-c4ccc5c(c4)OCO5)cc(C(F)(F)F)n3n2)C1 (configuration not stated),"inconclusive: 29.1 µM [inhibitor, partial curve, poor fit]"
13,COC(=O)COc1ccc(/C=C2\SC(=O)N(CC(=O)Nc3ccccc3F)C2=O)cc1,"inconclusive: 35.5 µM [activator, single point]"
14,COc1ccc(-n2nc(C(=O)NCC(=O)N3CCN(c4ccccc4)CC3)c3ccccc3c2=O)c(OC)c1,"inconclusive: 8.91 µM [inhibitor, partial curve, poor fit]"
15,Nc1nc(-c2c[nH]c3ccccc23)cs1,"inconclusive: 16.4 µM [activator, partial curve]"
16,COc1cc(C2C(C#N)=C(N)N(Nc3ccccc3)C3=C2C(=O)CC(C)(C)C3)ccc1OCc1ccccc1 (configuration not stated),"inconclusive: 31.6 µM [inhibitor, single point]"
17,COC(=O)c1ccc(CSc2nc(-c3ccco3)cc(C(F)(F)F)n2)o1,"inconclusive: 35.5 µM [inhibitor, single point]"
18,Cc1cc(C)c(NC(=O)C(C)n2c(=O)c(C(F)(F)F)nc3ccccc32)c(C)c1 (configuration not stated),"inconclusive: 35.5 µM [activator, single point]"
19,O=C(Nc1ccc(-c2noc(COc3ccccc3Cl)n2)cc1)c1ccco1,"inconclusive: 22.4 µM [inhibitor, partial curve, poor fit]"
20,Cc1ccc(NC(=O)c2ccc3nccnc3c2)c(C)c1,inactive
21,C=CC[N+](C)(C)CCCNC(=O)/C=N/O,"inconclusive: 29.1 µM [inhibitor, single point]"

# Single entries from the list:
# COc1cc(S(=O)(=O)NCCOC23CC4CC(CC(C4)C2)C3)c(OC)cc1Cl – Potency: inconclusive: 1.26 µM [activator, single point]
# COC(=O)COc1ccc(/C=C2\SC(=O)N(CC(=O)Nc3ccccc3F)C2=O)cc1 – Potency: inconclusive: 35.5 µM [activator, single point]
